Measurements: the supplement of paper PMC12764529
± gives the half width of the 95% confidence interval. The two proteases of the assay disagree for many of these sequences.

Tests used:
[1] = folding stability dG unfold (combined trypsin and chymotrypsin); higher = more stable
Summary of the method: (§1)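 Mini-proteins designed to be under 80 residues and free of cysteine were carried in a PA-tagged cDNA display construct and digested with trypsin and with chymotrypsin. Each protease was applied at 11 threefold-diluted concentrations, alongside a no-protease condition, before sequencing. K50 came from Bayesian fitting of the sequencing counts, and unfolding free energy was obtained by comparing it with a sequence-predicted unfolded-state K50 and a shared folded-state K50, for each protease separately or for both together. Designs were retained only if their AlphaFold2 dimer inter-PAE exceeded 15.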

[2] = folding stability dG unfold from chymotrypsin proteolysis; higher = more stable
Summary of the method: as §1

[3] = folding stability dG unfold from trypsin proteolysis; higher = more stable
Summary of the method: as §1

Row | Sequence | folding stability dG unfold [1] [kcal/mol] | folding stability dG unfold [2] [kcal/mol] | folding stability dG unfold [3] [kcal/mol]
1 | SAGGMKKGEKVKIEIISVEEKEGKIYFTIRIKNEKTGKYYEIKIEAPSKEDALKAIEELIKEGKIEIKSAGG [r13_286_TrROS_Hall] | 3.92 ± 0.54 | 4.2 ± 0.22 | 1.77 ± 0.31
2 | SAGGGPVTEETYTIKRPDGTELVVTRYYFPGTGETVVRIYPPSTKTPLSTVPLSEASPELLAEIARRSAGGS [r8_32_JUSTAS] | 1.79 ± 0.03 | 2.108 ± 0.013 | 1.2 ± 0.027
3 | SAGMTLTIKLPLKPGETVEVEVVSPQGVGATSEVLPDGSVKVTIERPSPSDPPPTLNITVYKKGTGEKVSAG [r14_39_JUSTAS] | 2.04 ± 0.12 | 3.08 ± 0.077 | 0.857 ± 0.045
4 | SMIIKIKIKEIKLEKNKDGSLTLTIKLENGKEIKLTFPKGWKIKKIEIKEDGYIYIEIEPVKKKSEEEKKSA [r9_501_TrROS_Hall] | 3.25 ± 0.16 | 3.75 ± 0.1 | 1.53 ± 0.079
5 | SAGGGIVEKIKEIIEKLGVKYEVTETEEGIVITVEADPETYKKIKEEIEKLTGKPVKVLLIKPGESKSAGGS [r16_514_JUSTAS] | 4.61 ± 0.29 | 4.85 ± 0.14 | 0.998 ± 0.1
6 | SAGGSAGGSAMTVESEVSEIPNGGKTVTITVTESGKKIPVTFPDSPSNPVPKEELVAKVIKESAGGSAGGSA [r18_111_JUSTAS] | 1.07 ± 0.055 | 1.58 ± 0.029 | -1.27 ± 0.16
7 | SAGGSAGGSAGGWDVEIEPFPDGFIFITAEGPNGRKLVIVVMVVPEGKLMYMIVPLDDLSAGGSAGGSAGGS [r10_140_TrROS] | 3.34 ± 0.19 | 3.71 ± 0.097 | 2.35 ± 0.095
8 | SAGMPFPVRLVSVDPGARVLTIAAPNAKGPATLLPDGTLVVRAVLYDEDGRPVAEFTLTLPVDLPPGLASAG [r5_475_TrMRF] | 2.07 ± 0.15 | 2.73 ± 0.045 | 0.684 ± 0.1
9 | SAGMLYVVVTNAGDKPFVFVVPREEYTPEGIRERVAEALGLPVEDVEILSITPFEDESPIEEVKKKALGSAG [r5_900_JUSTAS] | 3.39 ± 0.065 | 3.87 ± 0.048 | 0.763 ± 0.023
10 | SAGGSAPEIPTDALVRVRDPNSDKWYEATVLEARKLPGGELVYLIRLTKDGNEELVPTDLATVELKSAGGSA [r15_62_JUSTAS] | 1.29 ± 0.098 | 1.53 ± 0.12 | 1.05 ± 0.08
11 | SAGGNLKIEIEEVYYNPENGILVIMIKISQTYTVPPGELKDPDGKEMPPGATIKVEMYIMIVIFPENSAGGS [r8_262_TrROS] | 5.05 ± 0.22 | 5.27 ± 0.28 | 3.14 ± 0.18
12 | SAGGWMTWEFELEDEDGKDIKIEVEQNPGNPWWRVKIEHKGGKPIPEIPIPADSPDDAIDQARDLLKSAGGS [r16_158_TrROS] | -0.149 ± 0.33 | -0.0698 ± 0.49 | 0.17 ± 0.21
13 | SAGGSAGGSAPTLTLELEVPTPEEAAALAEALREAGYEVEVEVRYDEATNRLTVRITVRPKPSAGGSAGGSA [r18_455_TrROS_Hall] | 2.4 ± 0.048 | 2.67 ± 0.044 | 0.0883 ± 0.14
14 | SAGGSAAKVVSVEYNPETNLYVVRVTFDGPEKETVEIVFESLEDLEAALAALPDDVTSVEIRRLKPSAGGSA [r15_589_TrROS_Hall] | 3.06 ± 0.068 | 3.57 ± 0.053 | 1.23 ± 0.023
15 | SAGGMVEVTYDPETGTLTILLPSPSGTLGPEAVEAAARLIRELYPEAEVEVEPLPDNTVRLRVRFPGGSAGG [r13_291_TrMRF] | 4.96 ± 0.14 | 5.38 ± 0.23 | 4.22 ± 0.093
16 | SAGEEIAKRLAEELKEKGYEVEVKVTVEYDEETGEVTITIEIKVKPKPAPPVKIEKKLEGMSEEEKKALSAG [r5_413_TrROS_Hall] | 0.187 ± 0.29 | 0.137 ± 0.084 | 0.113 ± 0.12
17 | SAGGSAGGSAGMKPDDTVTYTITVPHPESGEPLAEIELTYPVGTPIEKVKEEAKILAEKISAGGSAGGSAGG [r11_516_TrMRF] | 0.429 ± 0.088 | 0.141 ± 0.27 | 0.515 ± 0.03

Some entries already given, limited to folding stability dG unfold [2] [kcal/mol] and folding stability dG unfold [1] [kcal/mol]:

| Row | Sequence | folding stability dG unfold [2] [kcal/mol] | folding stability dG unfold [1] [kcal/mol] |
| --- | --- | --- | --- |
| 4 | SMIIKIKIKEIKLEKNKDGSLTLTIKLENGKEIKLTFPKGWKIKKIEIKEDGYIYIEIEPVKKKSEEEKKSA [r9_501_TrROS_Hall] | 3.75 ± 0.1 | 3.25 ± 0.16 |
| 5 | SAGGGIVEKIKEIIEKLGVKYEVTETEEGIVITVEADPETYKKIKEEIEKLTGKPVKVLLIKPGESKSAGGS [r16_514_JUSTAS] | 4.85 ± 0.14 | 4.61 ± 0.29 |
